Test results from patent US20110004021A1, “THIAZOLECARBOXANILIDES” (priority 2005, published 2011).
Some results were stated once for a whole list of compounds, not compound by compound.

System: Puccinia recondita
Experiment: Curative activity against brown rust of wheat caused by Puccinia recondita
Format: in vivo
Details: wheat seedlings cultivar Kanzler, curative spray 250 mg/l one day after inoculation, assessed after 7 days; untreated plants 90% infected

| Structure (SMILES) | infection |
| --- | --- |
| Cc1nc(C(F)(F)F)c(C(=O)Nc2ccccc2-c2cc(F)c(F)c(F)c2)s1 [I.1, N-(3′,4′,5′-Trifluorobiphenyl-2-yl)-2-methyl-4-trifluoromethylthiazole-5-carboxamide] | at most 1% |
| Cc1nc(C(F)(F)F)c(C(=O)Nc2ccccc2-c2cc(F)c(F)cc2F)s1 [I.2, N-(2′,4′,5′-trifluorobiphenyl-2-yl)-2-methyl-4-trifluoromethylthiazole-5-carboxamide] | at most 1% |
| Cc1nc(C)c(C(=O)Nc2ccccc2-c2cc(F)c(F)c(F)c2)s1 [I.3, N-(3′,4′,5′-trifluorobiphenyl-2-yl)-2,4-dimethylthiazole-5-carboxamide] | at most 1% |
| Cc1nc(C)c(C(=O)Nc2ccccc2-c2cc(F)c(F)cc2F)s1 [I.4, N-(2′,4′,5′-trifluorobiphenyl-2-yl)-2,4-dimethylthiazole-5-carboxamide] | at most 1% |
